{
  "source": "patent US20080038321A1",
  "about": "“PROPHYLACTIC/THERAPEUTIC COMPOSITIONS FOR LIVER DISEASES” (Ajinomoto Co., Inc., priority 2004, published 2008)",
  "test_system": "TRB3",
  "assay": "Suppressive effects of amino acids on TRB3 expression in cultured hepatocytes (Fao cells, quantitative PCR)",
  "type": "cell-based, rat",
  "conditions": "other experiments",
  "procedure": "Suppressive effects of twenty-two amino acids on TRB3 expression in rat hepatic cancer-derived Fao cells were examined.\nThe standard medium is a medium corresponding to the minus amino acid medium, except for further containing amino acids listed in Table 2.\nRNAs were extracted from the cultured cells, the expression levels of TRB3 gene were determined through quantitative polymerase chain reaction (PCR), and the suppressive effects of amino acids on TRB3 expression were determined and compared with data of TRB3 expression induced upon amino acid starvation. The gene expression was corrected with reference to β-actin expression level. The correction was carried out in the same manner in the after-mentioned genes.\nThe data were corrected and expressed while taking the average of TRB3 mRNA levels after three-hour cultivation in the minus amino acid medium as 1.00.",
  "data": [
    {"molecule": "NCCC[C@H](N)C(=O)O", "note": "[ornithine, reference compound]", "values": [
      {"measurement": "suppressive effect on TRB3 expression compared with L-aspartic acid", "setting": "0.03 to 0.06 mM", "result": "less suppressive effect than that of L-aspartic acid"},
      {"measurement": "suppressive effect on TRB3 expression compared with L-aspartic acid", "setting": "0.3 to 1 mM", "result": "suppressive effect equivalent to that of L-aspartic acid"}
    ]}
  ]
}
